Source: patent publication US20200270332A1
These are yes or no findings as the source states them, for the method shown. Some entries that bind do so weakly or less than the wild type.

Protein sequences, listed by entry. Tags and fused reporters are not part of them. Lines headed by an entry give the natural chain unless they say otherwise; changes in a name come on top. Chains listed by the source or under a name are the forms on record and can include a tag or linker. Residues count along the entry.
human fibronectin (P02751, form named): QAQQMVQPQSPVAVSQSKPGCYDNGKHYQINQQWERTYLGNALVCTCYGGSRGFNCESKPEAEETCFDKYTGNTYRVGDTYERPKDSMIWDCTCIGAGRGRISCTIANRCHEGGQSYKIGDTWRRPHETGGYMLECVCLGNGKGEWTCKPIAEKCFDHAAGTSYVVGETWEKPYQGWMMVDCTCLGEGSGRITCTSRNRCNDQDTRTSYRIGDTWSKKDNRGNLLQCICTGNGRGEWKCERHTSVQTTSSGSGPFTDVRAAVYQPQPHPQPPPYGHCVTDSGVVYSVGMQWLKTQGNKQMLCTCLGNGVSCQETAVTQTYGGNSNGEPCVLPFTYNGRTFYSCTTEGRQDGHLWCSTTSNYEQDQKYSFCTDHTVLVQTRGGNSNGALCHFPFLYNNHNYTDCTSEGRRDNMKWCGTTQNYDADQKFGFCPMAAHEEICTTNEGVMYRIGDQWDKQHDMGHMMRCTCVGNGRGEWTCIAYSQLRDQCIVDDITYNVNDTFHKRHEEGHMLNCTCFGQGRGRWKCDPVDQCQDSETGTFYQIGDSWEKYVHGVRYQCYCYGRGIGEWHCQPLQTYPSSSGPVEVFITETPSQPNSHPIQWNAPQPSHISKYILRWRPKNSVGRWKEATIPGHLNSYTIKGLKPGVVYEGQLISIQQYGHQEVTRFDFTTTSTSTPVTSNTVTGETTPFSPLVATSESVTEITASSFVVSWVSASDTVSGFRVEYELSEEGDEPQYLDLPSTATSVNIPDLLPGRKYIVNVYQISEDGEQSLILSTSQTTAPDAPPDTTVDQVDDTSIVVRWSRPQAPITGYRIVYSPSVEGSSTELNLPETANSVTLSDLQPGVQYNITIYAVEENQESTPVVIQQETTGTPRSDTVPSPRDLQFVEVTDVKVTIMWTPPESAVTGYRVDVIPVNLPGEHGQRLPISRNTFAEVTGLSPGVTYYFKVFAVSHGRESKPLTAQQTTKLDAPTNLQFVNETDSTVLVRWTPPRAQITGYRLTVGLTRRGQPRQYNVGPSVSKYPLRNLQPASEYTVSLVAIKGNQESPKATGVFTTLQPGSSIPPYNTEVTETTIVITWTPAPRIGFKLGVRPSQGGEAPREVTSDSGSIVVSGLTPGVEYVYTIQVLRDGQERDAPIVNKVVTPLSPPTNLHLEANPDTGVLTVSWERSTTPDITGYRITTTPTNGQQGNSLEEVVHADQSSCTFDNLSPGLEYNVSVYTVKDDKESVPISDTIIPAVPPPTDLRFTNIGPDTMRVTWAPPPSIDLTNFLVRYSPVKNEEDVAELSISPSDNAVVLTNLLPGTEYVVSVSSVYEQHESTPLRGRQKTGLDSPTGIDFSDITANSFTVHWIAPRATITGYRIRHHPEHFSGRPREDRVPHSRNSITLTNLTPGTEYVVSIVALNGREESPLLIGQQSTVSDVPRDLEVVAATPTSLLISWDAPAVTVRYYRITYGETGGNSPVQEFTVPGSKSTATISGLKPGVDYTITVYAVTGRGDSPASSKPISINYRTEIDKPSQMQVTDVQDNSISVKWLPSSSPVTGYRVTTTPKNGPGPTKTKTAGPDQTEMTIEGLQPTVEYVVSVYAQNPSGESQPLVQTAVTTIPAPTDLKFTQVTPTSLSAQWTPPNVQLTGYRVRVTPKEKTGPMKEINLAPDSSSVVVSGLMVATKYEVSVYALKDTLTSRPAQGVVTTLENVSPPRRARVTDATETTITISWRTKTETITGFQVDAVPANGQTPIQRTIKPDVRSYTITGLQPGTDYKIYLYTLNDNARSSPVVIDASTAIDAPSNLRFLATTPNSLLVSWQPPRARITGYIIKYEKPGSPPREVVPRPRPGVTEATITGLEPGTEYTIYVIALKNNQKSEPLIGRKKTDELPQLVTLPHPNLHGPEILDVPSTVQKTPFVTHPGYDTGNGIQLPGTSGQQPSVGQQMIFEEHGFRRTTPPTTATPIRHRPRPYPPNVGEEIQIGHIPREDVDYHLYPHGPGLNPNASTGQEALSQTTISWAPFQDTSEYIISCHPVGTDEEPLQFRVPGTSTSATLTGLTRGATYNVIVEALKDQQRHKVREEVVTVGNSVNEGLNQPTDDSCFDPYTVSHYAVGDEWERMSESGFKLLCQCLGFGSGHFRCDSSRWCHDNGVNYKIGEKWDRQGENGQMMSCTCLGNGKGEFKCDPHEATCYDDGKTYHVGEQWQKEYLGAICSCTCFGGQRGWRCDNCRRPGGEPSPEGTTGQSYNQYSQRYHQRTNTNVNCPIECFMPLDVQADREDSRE
UniProt P14780, residues 20-707: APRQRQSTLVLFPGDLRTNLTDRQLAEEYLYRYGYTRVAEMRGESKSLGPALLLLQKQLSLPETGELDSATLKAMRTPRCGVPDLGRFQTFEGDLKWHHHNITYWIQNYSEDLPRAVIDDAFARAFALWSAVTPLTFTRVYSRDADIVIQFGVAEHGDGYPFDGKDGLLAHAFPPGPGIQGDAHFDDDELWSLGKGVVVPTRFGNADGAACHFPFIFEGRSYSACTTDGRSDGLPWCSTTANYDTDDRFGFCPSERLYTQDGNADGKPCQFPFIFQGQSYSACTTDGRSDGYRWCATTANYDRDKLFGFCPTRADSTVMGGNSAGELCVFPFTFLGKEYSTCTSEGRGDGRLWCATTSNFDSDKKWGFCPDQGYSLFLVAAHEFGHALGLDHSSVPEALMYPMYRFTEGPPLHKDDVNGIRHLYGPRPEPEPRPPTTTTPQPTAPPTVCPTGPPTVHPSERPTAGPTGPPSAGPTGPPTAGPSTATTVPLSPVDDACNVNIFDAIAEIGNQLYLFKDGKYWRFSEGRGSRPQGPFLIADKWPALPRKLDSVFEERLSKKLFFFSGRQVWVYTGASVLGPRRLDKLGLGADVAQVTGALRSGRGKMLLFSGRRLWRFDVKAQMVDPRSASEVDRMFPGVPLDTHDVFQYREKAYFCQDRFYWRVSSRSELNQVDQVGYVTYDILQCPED
UniProt P08253, residues 30-660: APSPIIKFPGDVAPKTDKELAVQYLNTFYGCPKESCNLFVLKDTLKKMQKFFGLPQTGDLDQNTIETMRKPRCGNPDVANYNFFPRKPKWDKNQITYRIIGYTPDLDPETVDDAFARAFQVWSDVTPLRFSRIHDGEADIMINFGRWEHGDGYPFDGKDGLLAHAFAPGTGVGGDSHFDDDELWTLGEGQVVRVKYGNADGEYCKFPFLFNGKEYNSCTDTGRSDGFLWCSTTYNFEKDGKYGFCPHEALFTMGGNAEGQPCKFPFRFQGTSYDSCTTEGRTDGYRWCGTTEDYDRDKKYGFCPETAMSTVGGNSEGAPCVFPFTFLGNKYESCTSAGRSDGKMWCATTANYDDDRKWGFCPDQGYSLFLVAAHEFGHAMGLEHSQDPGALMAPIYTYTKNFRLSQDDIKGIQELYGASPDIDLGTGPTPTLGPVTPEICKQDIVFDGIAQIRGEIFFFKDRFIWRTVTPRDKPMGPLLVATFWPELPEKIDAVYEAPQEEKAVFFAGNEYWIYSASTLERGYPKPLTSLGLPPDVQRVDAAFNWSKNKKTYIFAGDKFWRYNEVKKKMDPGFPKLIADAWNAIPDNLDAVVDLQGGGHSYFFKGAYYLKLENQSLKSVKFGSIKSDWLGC
UniProt P39060: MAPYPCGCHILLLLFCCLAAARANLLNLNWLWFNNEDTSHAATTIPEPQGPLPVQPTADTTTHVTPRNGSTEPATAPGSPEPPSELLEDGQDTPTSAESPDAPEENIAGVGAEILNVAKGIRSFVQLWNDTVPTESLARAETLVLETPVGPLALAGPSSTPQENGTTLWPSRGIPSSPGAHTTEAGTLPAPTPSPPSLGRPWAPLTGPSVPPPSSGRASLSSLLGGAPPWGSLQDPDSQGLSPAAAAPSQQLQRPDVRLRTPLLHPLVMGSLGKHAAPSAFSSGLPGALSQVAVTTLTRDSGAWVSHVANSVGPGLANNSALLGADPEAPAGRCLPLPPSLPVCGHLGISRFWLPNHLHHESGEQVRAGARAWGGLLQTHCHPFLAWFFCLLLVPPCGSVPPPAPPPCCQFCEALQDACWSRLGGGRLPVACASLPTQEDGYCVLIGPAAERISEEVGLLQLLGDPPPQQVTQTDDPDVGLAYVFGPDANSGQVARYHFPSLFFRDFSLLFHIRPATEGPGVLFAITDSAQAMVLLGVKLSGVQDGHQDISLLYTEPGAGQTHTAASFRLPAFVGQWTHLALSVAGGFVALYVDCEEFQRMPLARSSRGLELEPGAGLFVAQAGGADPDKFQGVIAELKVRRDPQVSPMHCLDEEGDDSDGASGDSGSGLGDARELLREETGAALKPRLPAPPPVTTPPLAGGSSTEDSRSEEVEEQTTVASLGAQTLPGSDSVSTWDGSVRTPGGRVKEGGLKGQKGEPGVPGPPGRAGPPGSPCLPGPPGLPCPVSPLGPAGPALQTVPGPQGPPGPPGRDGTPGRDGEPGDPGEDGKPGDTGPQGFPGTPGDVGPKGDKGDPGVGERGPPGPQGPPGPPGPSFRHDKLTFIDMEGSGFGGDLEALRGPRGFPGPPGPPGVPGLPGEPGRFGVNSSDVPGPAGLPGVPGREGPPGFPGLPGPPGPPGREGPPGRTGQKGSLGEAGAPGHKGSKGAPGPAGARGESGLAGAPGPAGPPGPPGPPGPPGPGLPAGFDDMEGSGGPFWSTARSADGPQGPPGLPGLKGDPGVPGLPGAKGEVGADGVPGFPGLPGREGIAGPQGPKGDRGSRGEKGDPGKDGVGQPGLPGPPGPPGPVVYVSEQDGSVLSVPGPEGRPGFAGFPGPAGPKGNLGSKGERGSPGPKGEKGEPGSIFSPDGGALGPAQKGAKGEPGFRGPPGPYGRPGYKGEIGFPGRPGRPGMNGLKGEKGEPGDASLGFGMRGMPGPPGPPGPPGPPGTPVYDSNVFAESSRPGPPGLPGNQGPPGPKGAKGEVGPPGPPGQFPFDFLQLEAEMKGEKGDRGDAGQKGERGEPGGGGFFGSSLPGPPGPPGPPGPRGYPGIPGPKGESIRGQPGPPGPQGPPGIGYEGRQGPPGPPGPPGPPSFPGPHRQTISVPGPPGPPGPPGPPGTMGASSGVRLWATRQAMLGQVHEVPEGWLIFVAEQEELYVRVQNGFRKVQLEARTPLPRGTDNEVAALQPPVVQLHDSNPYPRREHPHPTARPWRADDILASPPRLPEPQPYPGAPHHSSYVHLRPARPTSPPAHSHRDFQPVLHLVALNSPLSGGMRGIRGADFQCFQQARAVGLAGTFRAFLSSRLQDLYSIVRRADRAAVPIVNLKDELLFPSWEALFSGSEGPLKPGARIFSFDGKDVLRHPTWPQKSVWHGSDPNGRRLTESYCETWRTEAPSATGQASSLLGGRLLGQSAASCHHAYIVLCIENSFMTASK

Assays:
[1] = biological target: human fibronectin (human) (UniProt P02751); experiment: ELISA, plate coated with fibronectin, anti-endostatin antibody detection
[2] = biological target: recombinant human matrix metalloproteinase-9 (human) (UniProt P14780); experiment: ELISA, plate coated with human MMP-9, anti-endostatin antibody detection
[3] = biological target: recombinant human matrix metalloproteinase-2 (human) (UniProt P08253); experiment: ELISA, plate coated with human MMP-2, anti-endostatin antibody detection
[4] = biological target: recombinant human matrix metalloproteinase-2 (human) (UniProt P08253); experiment: ELISA, plate coated with MMP-2, anti-endostatin antibody detection

Measured: binding

Fc-endostatin (human Fc-endostatin, dimer through the Fc) (from UniProt P39060 1572-1751) (Fc fusion)
binds: all assays above
